# No constants are given. Whether binding was seen depends on the method and setting. In cells and extracts the contact can be indirect. Some entries that bind do so weakly or less than the wild type.
# Amino acid sequences for entries named in this document (tags omitted). Residues count along the entry.
# UniProt O43181, residues 43-175: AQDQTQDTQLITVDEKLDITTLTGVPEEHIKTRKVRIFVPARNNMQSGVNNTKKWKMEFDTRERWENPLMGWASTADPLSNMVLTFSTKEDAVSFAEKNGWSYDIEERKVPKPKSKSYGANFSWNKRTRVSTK
# UniProt P99999: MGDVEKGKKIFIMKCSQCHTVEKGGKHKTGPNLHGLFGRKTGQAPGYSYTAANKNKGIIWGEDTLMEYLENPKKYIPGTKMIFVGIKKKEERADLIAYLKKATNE
# UniProt P31040, residues 43-664: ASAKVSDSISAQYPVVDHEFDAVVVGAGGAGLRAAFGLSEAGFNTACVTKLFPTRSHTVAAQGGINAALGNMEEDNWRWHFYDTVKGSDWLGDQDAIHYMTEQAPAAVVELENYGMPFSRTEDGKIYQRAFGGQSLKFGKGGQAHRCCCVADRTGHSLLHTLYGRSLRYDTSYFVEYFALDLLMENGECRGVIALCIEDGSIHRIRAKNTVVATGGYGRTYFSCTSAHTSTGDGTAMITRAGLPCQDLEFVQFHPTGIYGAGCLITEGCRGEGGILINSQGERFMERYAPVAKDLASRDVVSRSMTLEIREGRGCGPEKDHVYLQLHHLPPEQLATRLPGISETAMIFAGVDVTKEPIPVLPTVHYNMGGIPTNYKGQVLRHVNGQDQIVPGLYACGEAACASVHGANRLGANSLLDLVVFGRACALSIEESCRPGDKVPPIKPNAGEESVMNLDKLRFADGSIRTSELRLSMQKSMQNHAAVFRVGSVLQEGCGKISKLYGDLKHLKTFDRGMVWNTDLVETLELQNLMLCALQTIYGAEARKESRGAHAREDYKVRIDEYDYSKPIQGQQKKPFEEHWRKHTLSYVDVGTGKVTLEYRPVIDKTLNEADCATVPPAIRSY
# Molecular target: T1, methionine sulfoxide reductase A (MsrA), human lens epithelial cell mitochondria (human (endogenous in HLE B3)) (UniProt Q9UJ68)
# T1 sequence: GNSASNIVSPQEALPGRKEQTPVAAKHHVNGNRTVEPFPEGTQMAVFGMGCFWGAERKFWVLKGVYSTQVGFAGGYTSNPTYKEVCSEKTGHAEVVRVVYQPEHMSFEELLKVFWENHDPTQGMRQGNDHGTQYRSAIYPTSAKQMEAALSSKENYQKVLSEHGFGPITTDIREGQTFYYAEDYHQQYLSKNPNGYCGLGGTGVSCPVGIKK
# Assay: co-IP; HLE B3 mitochondrial protein (500 ug) incubated overnight at 4 C with MsrA antibody conjugated to NHS activated beads; washed 4X with PBS 1 mM n-dodecyl-beta-D-maltopyranoside; eluted with 0.2 M glycine pH 2.5; blots probed with antibodies to subunits of complexes I-V or to cyt c
row,binding,Substance
1,binds,"NDUFS4 (18 kDa), subunit of mitochondrial complex I, human (from UniProt O43181 43-175)"
2,binds,"cytochrome c, human lens epithelial cell mitochondria (from UniProt P99999 1-105)"
3,binds,"complex V ATP synthase subunit beta (56 kDa), human (from UniProt P06576 48-529)"
4,binds,"complex II 70 kDa subunit, human (from UniProt P31040 43-664)"

# Reference: PMC2684557
